Results as given in PMC12499447, “API5 Phosphorylation Promotes Antiviral Immunity by Inhibiting Degradation of Cytosolic RNA Sensor RLRs” (Advanced Science, 2025).
No constants are given. Whether binding was seen depends on the method and setting. Binding seen in cells or lysates may run through a third protein. A yes stands for co-enrichment or nearness to the bait. Other partners may have been found. Where a sequence is shown, tags or fusion partners need not be part of it.

The chains behind the UniProt entries cited, without tags or fusion partners.
UniProt Q96SB4: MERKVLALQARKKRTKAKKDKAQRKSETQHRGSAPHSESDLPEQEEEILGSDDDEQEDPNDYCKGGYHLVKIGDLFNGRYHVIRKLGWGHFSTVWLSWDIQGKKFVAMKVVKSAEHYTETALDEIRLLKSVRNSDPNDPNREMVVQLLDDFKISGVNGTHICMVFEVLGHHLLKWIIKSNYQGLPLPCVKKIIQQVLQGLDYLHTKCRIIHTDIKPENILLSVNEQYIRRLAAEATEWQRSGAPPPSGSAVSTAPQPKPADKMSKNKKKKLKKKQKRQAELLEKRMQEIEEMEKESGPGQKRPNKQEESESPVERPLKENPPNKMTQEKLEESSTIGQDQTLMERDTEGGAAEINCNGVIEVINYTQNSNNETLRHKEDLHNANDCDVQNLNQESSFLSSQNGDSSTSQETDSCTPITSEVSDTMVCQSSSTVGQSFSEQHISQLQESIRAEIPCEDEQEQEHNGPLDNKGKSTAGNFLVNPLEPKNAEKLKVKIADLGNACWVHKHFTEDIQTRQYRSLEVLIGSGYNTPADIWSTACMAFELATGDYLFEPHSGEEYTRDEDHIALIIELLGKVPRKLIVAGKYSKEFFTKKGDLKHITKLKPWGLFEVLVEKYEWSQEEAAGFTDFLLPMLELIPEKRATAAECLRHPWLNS

Target: T1, Flag-API5 (human) (UniProt Q9BZZ5)
T1 sequence: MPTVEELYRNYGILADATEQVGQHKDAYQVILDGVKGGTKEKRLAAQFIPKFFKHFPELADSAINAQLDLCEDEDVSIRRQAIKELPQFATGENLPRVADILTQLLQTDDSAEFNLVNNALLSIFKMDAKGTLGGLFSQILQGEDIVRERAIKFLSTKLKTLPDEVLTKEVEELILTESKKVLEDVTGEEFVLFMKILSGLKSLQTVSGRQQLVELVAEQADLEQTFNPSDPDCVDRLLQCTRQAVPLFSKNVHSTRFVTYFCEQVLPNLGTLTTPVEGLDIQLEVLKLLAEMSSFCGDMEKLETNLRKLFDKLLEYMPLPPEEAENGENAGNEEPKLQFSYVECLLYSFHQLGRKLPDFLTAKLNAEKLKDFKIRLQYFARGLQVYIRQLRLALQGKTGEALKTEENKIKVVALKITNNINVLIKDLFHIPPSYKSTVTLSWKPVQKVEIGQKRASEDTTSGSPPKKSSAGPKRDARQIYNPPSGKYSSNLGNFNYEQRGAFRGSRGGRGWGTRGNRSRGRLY
Assay: affinity purification with mass spectrometry

Question: How did the binding turn out when “Serine/arginine-rich protein kinase 1 (SRPK1), endogenous (from UniProt Q96SB4 1-655) (enzyme)” was run?
Answer: The binding was “binds”.
